The values below come from paper PMC12095639.

Sequences of proteins named here, by UniProt entry; tags and fusion partners are left off.
UniProt P0DMW0: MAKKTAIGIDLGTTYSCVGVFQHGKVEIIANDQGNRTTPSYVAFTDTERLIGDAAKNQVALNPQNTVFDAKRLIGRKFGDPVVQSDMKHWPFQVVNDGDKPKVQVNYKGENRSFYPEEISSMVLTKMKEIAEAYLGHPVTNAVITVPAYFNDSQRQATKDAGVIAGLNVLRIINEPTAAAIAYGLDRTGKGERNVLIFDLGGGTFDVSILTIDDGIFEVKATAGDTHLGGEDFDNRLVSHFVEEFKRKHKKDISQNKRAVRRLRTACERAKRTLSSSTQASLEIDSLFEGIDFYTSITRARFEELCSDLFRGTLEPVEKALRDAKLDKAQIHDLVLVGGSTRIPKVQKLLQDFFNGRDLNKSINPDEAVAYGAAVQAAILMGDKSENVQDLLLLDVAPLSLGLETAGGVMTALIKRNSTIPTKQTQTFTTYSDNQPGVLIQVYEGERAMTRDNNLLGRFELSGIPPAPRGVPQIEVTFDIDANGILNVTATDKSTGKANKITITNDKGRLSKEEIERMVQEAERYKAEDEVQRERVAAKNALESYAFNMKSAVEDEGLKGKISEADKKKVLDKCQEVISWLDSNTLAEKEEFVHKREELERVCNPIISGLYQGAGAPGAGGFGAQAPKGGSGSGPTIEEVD
UniProt A6HD62: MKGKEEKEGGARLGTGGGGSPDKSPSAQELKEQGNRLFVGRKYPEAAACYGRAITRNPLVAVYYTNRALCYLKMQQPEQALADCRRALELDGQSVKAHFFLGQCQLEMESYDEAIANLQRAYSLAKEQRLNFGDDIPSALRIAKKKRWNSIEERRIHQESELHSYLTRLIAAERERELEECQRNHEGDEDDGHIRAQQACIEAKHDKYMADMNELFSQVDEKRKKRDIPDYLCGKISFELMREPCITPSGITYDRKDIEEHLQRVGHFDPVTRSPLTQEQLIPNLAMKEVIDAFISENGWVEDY

In the experiment the target is 70-kDa heat shock protein (HSP70), endogenous in NRVMs (rat (endogenous in NRVMs)) (UniProt P0DMW0). Nature of the experiment: co-IP; NRVMs infected with Ad-Vector or Ad-Asb10, with or without STUB1 siRNA; STUB1/HSP70 complex and HSP70 ubiquitination detected (Fig. 4G, H); lysates incubated with antibody and Protein A&G magnet beads overnight at 4 °C.

No constants are given. Whether binding was seen depends on the method and setting. Binding seen in cells or lysates may run through a third protein. Some results given as binding are weak or reduced against the parent protein; the word gives no strength.

Consider “STIP1 homology and U-box containing protein 1 (STUB1), endogenous in NRVMs (from UniProt A6HD62 1-304) (enzyme)”, for which the binding result is listed as “binds”.
